# Measurements published in the supplement of paper PMC7661543.
# ± gives the standard deviation of the averaged measurements. The effect of the compound repeats well; differences between the knockouts mostly do not.
# Tested on: ZR-75-1
# Assay: relative cell number vs DMSO control (72 h) (% of DMSO); higher = less growth inhibition (more cells)
# Experimental: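 QMAP-Seq: a pool of 5 breast cancer cell lines (ZR-75-1, SKBR3, HCC-38, MDA-MB-231, BT-20), each carrying 12 doxycycline-inducible Cas9 sgRNA perturbations (11 knockouts plus non-targeting sgNT), was treated with compounds for 72 h at four 10-fold doses (10 nM-10 uM or 1 nM-1 uM range). Barcodes were amplified and sequenced, and cell number was interpolated from 293T spike-in standard curves. The result is expressed as % of the median of DMSO wells. Two biological replicates.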
# [1] = sgRNA knockout: sgATF3, 1000 nM
# [2] = sgRNA knockout: sgATF3, 10000 nM
# [3] = sgRNA knockout: sgATF4, 1000 nM
# [4] = sgRNA knockout: sgATF4, 10000 nM
# [5] = sgRNA knockout: sgATF6, 1000 nM
# [6] = sgRNA knockout: sgATF6, 10000 nM
# [7] = sgRNA knockout: sgATG7, 1000 nM
# [8] = sgRNA knockout: sgATG7, 10000 nM
# [9] = sgRNA knockout: sgERN1, 1000 nM
# [10] = sgRNA knockout: sgERN1, 10000 nM
# [11] = sgRNA knockout: sgHSF2, 1000 nM
# [12] = sgRNA knockout: sgHSF2, 10000 nM
# [13] = sgRNA knockout: sgNFE2L2, 10 nM
# [14] = sgRNA knockout: sgNFE2L2, 100 nM
# [15] = sgRNA knockout: sgNFE2L2, 1000 nM
# [16] = sgRNA knockout: sgNFE2L2, 10000 nM
# [17] = sgRNA knockout: sgSLC35F2, 10 nM
# [18] = sgRNA knockout: sgSLC35F2, 100 nM
# [19] = sgRNA knockout: sgSLC35F2, 1000 nM
# [20] = sgRNA knockout: sgSLC35F2, 10000 nM
# [21] = sgRNA knockout: sgXBP1, 1000 nM
# [22] = sgRNA knockout: sgXBP1, 10000 nM
Compound,"relative cell number (sgRNA knockout: sgATF3, 10 nM)","relative cell number (sgRNA knockout: sgATF3, 100 nM)",relative cell number [1],relative cell number [2],"relative cell number (sgRNA knockout: sgATF4, 10 nM)","relative cell number (sgRNA knockout: sgATF4, 100 nM)",relative cell number [3],relative cell number [4],"relative cell number (sgRNA knockout: sgATF6, 10 nM)","relative cell number (sgRNA knockout: sgATF6, 100 nM)",relative cell number [5],relative cell number [6],"relative cell number (sgRNA knockout: sgATG7, 10 nM)","relative cell number (sgRNA knockout: sgATG7, 100 nM)",relative cell number [7],relative cell number [8],"relative cell number (sgRNA knockout: sgERN1, 10 nM)","relative cell number (sgRNA knockout: sgERN1, 100 nM)",relative cell number [9],relative cell number [10],"relative cell number (sgRNA knockout: sgHSF2, 10 nM)","relative cell number (sgRNA knockout: sgHSF2, 100 nM)",relative cell number [11],relative cell number [12],relative cell number [13],relative cell number [14],relative cell number [15],relative cell number [16],relative cell number [17],relative cell number [18],relative cell number [19],relative cell number [20],"relative cell number (sgRNA knockout: sgXBP1, 10 nM)","relative cell number (sgRNA knockout: sgXBP1, 100 nM)",relative cell number [21],relative cell number [22]
CC(C)[C@H](O)C(=O)N[C@@H](C)C(=O)N[C@@H]1C(=O)N(C)CCc2ccccc21 [Semagacestat],103 ± 14,110 ± 8.8,105 ± 25,98.6 ± 12,84.8 ± 2.4,73.9 ± 8.2,54.2 ± 11,113 ± 34,111 ± 7.4,62.3 ± 14,85.2 ± 5.9,53.2 ± 19,98.7 ± 25,83.8 ± 1.2,82.1 ± 0.84,118 ± 32,104 ± 7.3,91.7 ± 22,122 ± 29,83.1 ± 12,103 ± 4.3,100 ± 15,108.4 ± 0.61,105 ± 11,110.8 ± 1.1,64.68 ± 0.58,85.6 ± 50,125 ± 52,77.8 ± 27,84.7 ± 29,67.9 ± 9.1,104 ± 16,111.2 ± 1.1,76.8 ± 10,111 ± 27,104 ± 23
O=C1NC(=O)[C@@H](c2cn3c4c(cccc24)CCC3)[C@@H]1c1c[nH]c2ccccc12 [Tivantinib],81.9 ± 17,104 ± 22,34.3 ± 9.6,22.7 ± 0.57,79 ± 2.6,120 ± 77,37.5 ± 15,23.8 ± 12,108 ± 31,56.8 ± 17,44.8 ± 12,18.9 ± 5.8,91.3 ± 14,90.2 ± 31,23.7 ± 1.5,20.2 ± 1.7,90 ± 12,86 ± 25,27.7 ± 8.3,32.1 ± 5,84.9 ± 11,83.4 ± 11,26 ± 9.6,19.5 ± 7.2,90.8 ± 24,81.7 ± 14,32.2 ± 3.9,20.1 ± 4.9,117 ± 10,83.9 ± 37,28.6 ± 17,20.46 ± 0.052,75.2 ± 15,84.2 ± 2.7,32.6 ± 5.2,26.1 ± 8.2
CS(=O)(=O)N1CCN(Cc2cc3nc(-c4cccc5[nH]ncc45)nc(N4CCOCC4)c3s2)CC1 [GDC0941],108 ± 17,100 ± 49,48.9 ± 5,37.2 ± 4.9,118 ± 9.8,77.7 ± 1.2,49.9 ± 1.4,43.8 ± 22,81.6 ± 14,74.6 ± 30,49.6 ± 21,29.7 ± 3.9,76.6 ± 8.8,69.9 ± 3,48 ± 16,29.1 ± 9.6,104 ± 40,89.1 ± 29,58.5 ± 1.2,22 ± 4.1,80.7 ± 18,103 ± 29,53.7 ± 17,32.2 ± 4.8,97.9 ± 17,85.4 ± 26,59.2 ± 6.8,19.7 ± 11,87.2 ± 59,89.4 ± 1.3,68.2 ± 20,27.3 ± 4.2,87.6 ± 16,101 ± 14,50.7 ± 4.2,25.8 ± 4.3
OCc1ccc(-c2ccc(-c3ccc(CO)s3)o2)s1,54.2 ± 11,8.15 ± 1,13.1 ± 1.5,7.69 ± 5.4,70.3 ± 26,12.7 ± 7.5,15 ± 8.7,5.92 ± 2,48.2 ± 10,9.39 ± 4.3,14.4 ± 1.1,5.83 ± 5.3,52.9 ± 8.8,7.62 ± 1.3,11.1 ± 3.7,4.31 ± 1.9,45.6 ± 5.2,8.56 ± 6.4,14.1 ± 7.8,6.58 ± 1.8,40.2 ± 12,9.17 ± 3.7,10.8 ± 5.2,4.49 ± 2.4,45 ± 5.8,9.67 ± 1.1,13.8 ± 5.9,5.04 ± 1.9,68.6 ± 11,7.37 ± 4.4,14.2 ± 7.2,6.65 ± 5.8,35.6 ± 1.1,9.33 ± 2.6,11.7 ± 3.5,5.55 ± 3.2
Cc1[nH]c(/C=C2\C(=O)Nc3ccc(S(=O)(=O)N(C)c4cccc(Cl)c4)cc32)c(C)c1C(=O)N1CCN(C)CC1,114 ± 13,74.7 ± 14,85.5 ± 19,41.2 ± 2.5,93.1 ± 22,86.1 ± 48,73.1 ± 6,60.9 ± 18,101 ± 68,92.9 ± 4.1,56.8 ± 9.3,42.8 ± 1.1,93.8 ± 9.3,99.2 ± 55,71.7 ± 12,48.2 ± 28,101 ± 3.9,81.2 ± 27,67 ± 8.7,39.1 ± 2.4,101 ± 20,99.5 ± 21,74 ± 28,46 ± 16,76.6 ± 34,92.7 ± 46,86.5 ± 6.5,24.5 ± 17,99 ± 17,90.05 ± 0.19,103 ± 20,44.5 ± 31,86.3 ± 23,84.5 ± 21,73.6 ± 7.6,40.5 ± 15
O=C(O)CCCc1ccc(N(CCCl)CCCl)cc1 [Chlorambucil],95.9 ± 30,133 ± 4.7,106 ± 22,68.5 ± 3,110 ± 6.3,89.4 ± 5.2,64.8 ± 10,56.2 ± 13,68.7 ± 50,85.4 ± 21,51.5 ± 16,53.3 ± 4,85.9 ± 30,82.5 ± 6.6,52.53 ± 0.16,86.7 ± 5.7,97.2 ± 45,109 ± 55,90 ± 3.2,65 ± 17,111 ± 5.8,109 ± 32,97.1 ± 4,70.8 ± 6.5,105 ± 29,80.1 ± 6.9,89.3 ± 6.8,62.9 ± 14,91 ± 35,112 ± 36,80.8 ± 12,38.9 ± 21,98 ± 21,89.5 ± 7.3,108 ± 29,56.3 ± 5
CC(=O)Nc1nc(C)c(-c2ccc(Cl)c(S(=O)(=O)NCCO)c2)s1 [PIK93],129 ± 11,127 ± 8.3,81.3 ± 20,63.5 ± 8.1,109 ± 6,92.6 ± 9.2,80.3 ± 34,58 ± 13,110 ± 2.7,78.9 ± 12,74.3 ± 13,53.4 ± 2.7,78.8 ± 18,90.2 ± 3.6,72.4 ± 9.3,72.5 ± 16,93 ± 15,119 ± 18,88.9 ± 13,73.14 ± 0.25,99.6 ± 26,116.2 ± 1.1,85.3 ± 6.4,60.8 ± 20,87.7 ± 7.1,124 ± 8.2,89.7 ± 7.3,76.5 ± 9.9,145 ± 49,61.8 ± 23,58.2 ± 6.7,84.9 ± 38,107 ± 21,124 ± 15,85.58 ± 0.47,74.3 ± 7.8
CC[C@H](C)C(=O)O[C@H]1C[C@@H](C)C=C2C=C[C@H](C)[C@H](CC[C@@H]3C[C@@H](O)CC(=O)O3)[C@H]21 [Lovastatin],137 ± 22,83.6 ± 2.8,81.7 ± 2.5,78.6 ± 14,125 ± 24,80 ± 0.32,147 ± 61,71.5 ± 20,130 ± 4.4,129 ± 61,100 ± 3.2,87.4 ± 2,99.2 ± 13,82.1 ± 23,87.2 ± 30,72.9 ± 32,81.2 ± 4.5,83.8 ± 22,85.6 ± 18,78.1 ± 13,102 ± 17,89.2 ± 3,87.5 ± 5.7,66.1 ± 3,99.7 ± 51,83.3 ± 11,104 ± 6.1,78 ± 14,166 ± 84,81.9 ± 16,131 ± 26,44.6 ± 16,95.3 ± 16,85 ± 16,92.5 ± 2.7,76 ± 15
CC(=O)Nc1nc(C)c(S(=O)(=O)Nc2ccc(C(O)(C(F)(F)F)C(F)(F)F)cc2)s1 [SR1001],107 ± 15,97.4 ± 3.9,104 ± 16,112 ± 19,115 ± 38,114.3 ± 0.56,127 ± 24,114 ± 14,132 ± 37,89.5 ± 21,112 ± 35,104 ± 12,80.1 ± 27,98.9 ± 50,120 ± 3.3,105 ± 16,123 ± 12,103 ± 6.6,103 ± 16,131 ± 17,99.5 ± 1.4,86.66 ± 0.83,113 ± 4.4,117 ± 11,116 ± 22,111 ± 29,95.1 ± 17,124 ± 2.8,91.2 ± 2.3,92.5 ± 52,109 ± 25,110 ± 3,114 ± 7.7,95.4 ± 9.4,104 ± 4.3,94.6 ± 5.3
COc1cc([C@@H]2c3cc4c(cc3[C@@H](O[C@@H]3O[C@@H]5CO[C@@H](C)O[C@H]5[C@H](O)[C@H]3O)[C@H]3COC(=O)[C@H]23)OCO4)cc(OC)c1O [Etoposide],62.8 ± 25,74.4 ± 27,65.6 ± 18,45.9 ± 18,61.4 ± 8.2,77 ± 7.9,62.8 ± 4.2,40 ± 10,82.1 ± 3.1,64.6 ± 10,44.4 ± 30,25.6 ± 12,74.9 ± 27,66.4 ± 12,41 ± 13,39 ± 14,57 ± 1.7,69.7 ± 15,60.1 ± 7.5,37.5 ± 2.2,85 ± 35,67.5 ± 9.1,59 ± 1.9,36.9 ± 2.1,70.2 ± 12,62.9 ± 0.72,40.3 ± 4,25.3 ± 7.2,45.3 ± 21,71.8 ± 52,31.2 ± 26,33 ± 9.8,56.6 ± 3,65.7 ± 1.3,50.2 ± 0.55,34.1 ± 1.2

# Only relative cell number [5], relative cell number [2] and relative cell number [18], for some of the entries so far:
Compound	relative cell number [5]	relative cell number [2]	relative cell number [18]
O=C(O)CCCc1ccc(N(CCCl)CCCl)cc1 [Chlorambucil]	51.5 ± 16	68.5 ± 3	112 ± 36
CC(=O)Nc1nc(C)c(-c2ccc(Cl)c(S(=O)(=O)NCCO)c2)s1 [PIK93]	74.3 ± 13	63.5 ± 8.1	61.8 ± 23
